From paper PMC5552852, “Structural basis for Ccd1 auto-inhibition in the Wnt pathway through homomerization of the DIX domain” (Scientific Reports, 2017)
Results are given in words; binding and its absence hold for the method and conditions named. Some entries that bind do so weakly or less than the wild type. For part of these data: Tags and fused reporters may be left off the sequences shown.

T1: MBP-fused zCcd1 DIX (zebrafish, UniProt Q804T6 356-438)
T1 construct: DIX domain of zebrafish Ccd1, cDNA Gene ID 360137; The uncleaved precursor of m2; also called MBP-fused zCcd1 DIX domain; source: E. coli (plasmid pOPINM), purified (amylose resin)
T1 sequence (looked up): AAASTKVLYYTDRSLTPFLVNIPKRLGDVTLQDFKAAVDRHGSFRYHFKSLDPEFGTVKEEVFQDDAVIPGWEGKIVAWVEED


Key:
Axin DIX domain = Axin DIX domain (UniProt O70239); test: dynamic light scattering; Zetasizer Nano, 293 K, DIX domains at 100 uM, alone or mixed at a 1:1 molar ratio; both purified
MBP-fused zCcd1 DIX = target: T1, MBP-fused zCcd1 DIX; test: pull-down; MBP-fused mCcd1, zCcd1 or Dvl1 DIX (0.8 mM) held on amylose resin, Axin DIX or Dvl1 DIX free; pull-down buffer, 277 K (Figures 5f, 5g); both purified
Dvl1 DIX domain = Dvl1 DIX domain (UniProt P51141); test: dynamic light scattering; Zetasizer Nano, 293 K, DIX domains at 100 uM, alone or mixed at a 1:1 molar ratio; both purified

binding (Axin DIX domain) | binding (MBP-fused zCcd1 DIX) | binding (Dvl1 DIX domain) | Binder
binds | – | – | Axin DIX domain (domain or fragment, UniProt O70239 745-827, looked up, DIX domain of Axin; source: E. coli, expressed as a fusion construct with GST or MBP, purified) CDSIVVAYYFCGEPIPYRTLVRGRAVTLGQFKELLTKKGSYRYYFKKVSDEFDCGVVFEEVREDEAILPVFEEKIIGKVEKVD
– | binds | binds | Dvl1 DIX domain (domain or fragment, UniProt P51141 1-85) MAETKIIYHMDEEETPYLVKLPVAPERVTLADFKNVLSNRPVHAYKFFFKSMDQDFGVVKEEIFDDNAKLPCFNGRVVSWLVLAE
